Results are given in words; binding and its absence hold for the method and conditions named. In cells and extracts the contact can be indirect. Here binding means that the protein was enriched with, or labelled near, the bait; the list need not be complete. Sequences can lack the tags named with a protein.

Sequences of proteins named here, by UniProt entry; tags and fusion partners are left off.
UniProt Q12432: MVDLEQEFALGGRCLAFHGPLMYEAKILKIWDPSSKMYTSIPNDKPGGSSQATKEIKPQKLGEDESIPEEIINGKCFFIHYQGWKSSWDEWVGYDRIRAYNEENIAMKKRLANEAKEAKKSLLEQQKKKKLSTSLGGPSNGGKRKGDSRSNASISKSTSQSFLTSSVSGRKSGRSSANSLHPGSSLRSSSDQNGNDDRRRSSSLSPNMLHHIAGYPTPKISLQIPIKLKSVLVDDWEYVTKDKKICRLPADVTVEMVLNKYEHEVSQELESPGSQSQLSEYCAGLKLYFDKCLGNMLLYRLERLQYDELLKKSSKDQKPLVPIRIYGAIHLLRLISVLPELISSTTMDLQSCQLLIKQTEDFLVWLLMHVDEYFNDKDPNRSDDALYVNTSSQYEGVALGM

B1: Eaf7 (protein, UniProt P53911 1-425)
chain: MVVHWTIVDEIRLLRWASEFKPAGIHKHFHMFCIVERMNSPDKYPVTLLQKETMKLGKVFTAKDIWDKLSQSYNLEKIDEMENTYSLEATTESSRNGNGNGDDAEIHEETLLELNNRIRVRKQDFTLPWEEYGELILENARKSPNSNEEYPRVEDMNEKDSTIPKESPSTDLKNDNNKQEKNATIKVKELPEYHTEENDSPIDVQKEPIKEVQSDEKELQREHMSEEEQKMKSTNKTAAPVRKSQRLKRSKEVKFEDEEKEEIEEDNTKDEEQKEKKEEIQEPKITHNEEVDKEKNENEEGDDEREKSTSYENTNGSESEGVDEGVDEELGYESEREAEGKGKQIESEGGNLKKKTENKKGDDQQDDTKKDSKDKNEPLAKRTRHSSSTGNTSNETSPKRKRRKAGSRKNSPPATRVSSRLRNKK
B2: Yaf9 (protein, UniProt P53930 1-226)
chain: MAPTISKRIKTLSVSRPIIYGNTAKKMGSVKPPNAPAEHTHLWTIFVRGPQNEDISYFIKKVVFKLHDTYPNPVRSIEAPPFELTETGWGEFDINIKVYFVEEANEKVLNFYHRLRLHPYANPVPNSDNGNEQNTTDHNSKDAEVSSVYFDEIVFNEPNEEFFKILMSRPGNLLPSNKTDDCVYSKQLEQEEIDRIEIGIEKVDKEIDELKQKLENLVKQEAINGS
B3: Esa1 (protein, UniProt Q08649 1-445)
chain: MSHDGKEEPGIAKKINSVDDIIIKCQCWVQKNDEERLAEILSINTRKAPPKFYVHYVNYNKRLDEWITTDRINLDKEVLYPKLKATDEDNKKQKKKKATNTSETPQDSLQDGVDGFSRENTDVMDLDNLNVQGIKDENISHEDEIKKLRTSGSMTQNPHEVARVRNLNRIIMGKYEIEPWYFSPYPIELTDEDFIYIDDFTLQYFGSKKQYERYRKKCTLRHPPGNEIYRDDYVSFFEIDGRKQRTWCRNLCLLSKLFLDHKTLYYDVDPFLFYCMTRRDELGHHLVGYFSKEKESADGYNVACILTLPQYQRMGYGKLLIEFSYELSKKENKVGSPEKPLSDLGLLSYRAYWSDTLITLLVEHQKEITIDEISSMTSMTTTDILHTAKTLNILRYYKGQHIIFLNEDILDRYNRLKAKKRRTIDPNRLIWKPPVFTASQLRFAW
B4: Yng2 (protein, UniProt P38806 1-282)
chain: MDPSLVLEQTIQDVSNLPSEFRYLLEEIGSNDLKLIEEKKKYEQKESQIHKFIRQQGSIPKHPQEDGLDKEIKESLLKCQSLQREKCVLANTALFLIARHLNKLEKNIALLEEDGVLAPVEEDGDMDSAAEASRESSVVSNSSVKKRRAASSSGSVPPTLKKKKTSRTSKLQNEIDVSSREKSVTPVSPSIEKKIARTKEFKNSRNGKGQNGSPENEEEDKTLYCFCQRVSFGEMVACDGPNCKYEWFHYDCVNLKEPPKGTWYCPECKIEMEKNKLKRKRN
B5: Eaf5 (protein, UniProt P39995 1-279)
chain: MDKEVSELVVLQLIHTLISNKNEELVRNGGGINMIGNNLRISLVKLTNEIQNNLLINELTNLRRQSNVANGNRKLGINDILTIVKNLFPEYRTTLNDGQLSLHGLEMHDIEKLLDEKYDRFKKTQVEQIRMMEDEILKNGIKTGASQLQPHANAGKSGSAGTSATITTTTPHMAHSMDPKREKLLKLYRDTVLNKLESKTGNFQKLFKSPDGSIIKNEINYEDIKNETPGSVHELQLILQKSITDGVMRKVIGTDDWKLARQVQFELDDTVQFMRRALE
B6: Eaf6 (protein, UniProt P47128 1-113)
chain: MTDELKSYEALKAELKKSLQDRREQEDTFDNLQQEIYDKETEYFSHNSNNNHSGHGGAHGSKSHYSGNIIKGFDTFSKSHHSHADSAFNNNDRIFSLSSATYVKQQHGQSQND
B7: Eaf2/Swc4 (natural protein)
chain: MSSSDIFDVLNIKQKSRSPTNGQVSVPSSSAANRPKPQVTGMQRELFNLLGENQPPVVIKSGNNFKEKMLSTSKPSPWSFVEFKANNSVTLRHWVKGSKELIGDTPKESPYSKFNQHLSIPSFTKEEYEAFMNENEGTQKSVESEKNHNENFTNEKKDESKNSWSFEEIEYLFNLCKKYDLRWFLIFDRYSYNNSRTLEDLKEKFYYTCRNYFKASDPSNPLLSSLNFSAEKEIERKKYLQRLLSRSAAEIAEEEALVVESKKFEMAAKRTLAERESLLRLLDSPHSDQTITQYLTSQGMSQLYNALLADKTRKRKHDLNIPENPWMKQQQQFAQHRQLQQLNVKKSEVKENLSPKKTKRQRQEMQTALKRKSESAYAEQLLKDFNSDERKALGVITHGEKLSPGVYLRSTKLSTFKPALQNKILAILQELSLPSRPVMPSFDVMERQEELLKKINTLIDLKKHVDKYEAGMSITK

The experiment deals with T1, Epl1 with a TAP tag fused to the C-terminus (S. cerevisiae) (UniProt P43572).
T1 sequence: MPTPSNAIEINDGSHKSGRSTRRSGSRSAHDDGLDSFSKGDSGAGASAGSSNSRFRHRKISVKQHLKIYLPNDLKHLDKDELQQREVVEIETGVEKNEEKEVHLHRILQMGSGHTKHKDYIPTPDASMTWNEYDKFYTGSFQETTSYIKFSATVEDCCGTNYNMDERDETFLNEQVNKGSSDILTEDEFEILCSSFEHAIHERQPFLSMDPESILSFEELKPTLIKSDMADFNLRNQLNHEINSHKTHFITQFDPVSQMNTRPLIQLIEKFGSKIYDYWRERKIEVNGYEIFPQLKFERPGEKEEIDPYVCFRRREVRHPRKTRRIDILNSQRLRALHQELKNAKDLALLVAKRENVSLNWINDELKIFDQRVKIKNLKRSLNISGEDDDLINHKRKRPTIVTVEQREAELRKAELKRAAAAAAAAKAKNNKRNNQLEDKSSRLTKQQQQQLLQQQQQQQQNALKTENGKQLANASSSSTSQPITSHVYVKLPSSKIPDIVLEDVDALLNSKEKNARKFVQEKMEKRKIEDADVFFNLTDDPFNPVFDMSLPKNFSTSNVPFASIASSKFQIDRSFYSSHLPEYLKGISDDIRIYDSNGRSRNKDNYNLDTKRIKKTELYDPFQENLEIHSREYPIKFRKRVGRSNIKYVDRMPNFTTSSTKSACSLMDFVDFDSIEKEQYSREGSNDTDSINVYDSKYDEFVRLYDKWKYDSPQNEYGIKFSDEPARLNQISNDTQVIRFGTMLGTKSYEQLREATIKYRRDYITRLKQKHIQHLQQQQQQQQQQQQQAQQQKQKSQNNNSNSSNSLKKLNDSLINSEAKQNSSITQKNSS
In words: affinity purification with mass spectrometry.
Regarding Actin (from UniProt P60010 1-375), the binding result is “binds”. As for Eaf3 (from UniProt Q12432 1-401), the binding entry is recorded as “binds”. On to B1, for which the binding result is recorded as “binds”.

Take B2: the binding entry is “binds”. For B3 the value was “binds”. Take B4: the binding entry is recorded as “binds”. For B5 the value was “binds”; for B6, “binds”; for B7, “binds”.

(Values after publication doi:10.1101/2022.07.11.499577 (bioRxiv, 2022).)
